Measured values published in PubChem BioAssay AID1487 (National Center for Advancing Translational Sciences (NCATS), 2009).
Some of the results follow. These are further read-outs of the screen, such as a control signal, another cell line or another target. No call is given for them. Most of these compounds were active or inconclusive in the main read-out, so they are no random draw. The note in brackets gives the kind of curve behind each potency; many fits are weak.

Experiment: qHTS Assay for Modulators of Lamin A Splicing
Details: HeLa LMNA splicing GFP/RFP minigene ratio, 48 h
In short: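 Read-out is the ratio of GFP to DsRed2 object intensity, acquired by 488 nm laser-scanning cytometry on HeLa lamin A-EGFP minigene reporter cells. Compound incubation 48 hrs at 37 °C in Opti-MEM with 2% FBS; DMSO 0.5% final.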

[1] = measured here: GFP splicing reporter channel
[2] = measured here: RFP viability control channel

SMILES	AC50 [1]	AC50 [2]
NS(=O)(=O)c1cc(Cl)c(Cl)c(S(N)(=O)=O)c1	0.00447 µM [falling, full curve, poor fit]	0.355 µM [falling, partial curve]
COc1ccc(NC(=O)C2CCN(c3nc4ccccc4[nH]3)CC2)cc1OC	–	0.0282 µM [falling, full curve, poor fit]
C=CCN(CC=C)C(=S)NC(=O)c1ccc(-c2ccccc2)cc1	–	31.6 µM [rising, single point]
COc1ccc(OC)c(NC(=O)Nc2cccc(OCc3cc(=O)n4cc(C)ccc4n3)c2)c1	0.0224 µM [falling, full curve, poor fit]	0.0251 µM [falling, full curve, poor fit]
CC(NC(=O)c1cccc(Nc2nc3ccccc3n3nnnc23)c1)c1ccccc1 (stereo not drawn)	11.2 µM [falling, partial curve]	10 µM [falling, partial curve]
Cc1ccc(N2CCN(c3ncnc4onc(-c5ccc(F)cc5)c34)CC2)c(C)c1	–	10 µM [rising, partial curve, poor fit]
CCCCCOCC1CC(C/C(C)=N/NC(N)=S)C(=O)O1 (stereo not drawn)	5.62 µM [rising, single point]	35.5 µM [rising, single point]
N#Cc1nc(-c2ccc(OCc3ccccc3)cc2)oc1NCc1cccnc1	4.47 µM [rising, partial curve, poor fit]	–
COc1ccc(Cl)cc1S(=O)(=O)N1CCN(Cc2ccc3c(c2)OCO3)CC1	–	3.55 µM [rising, single point]
COc1ccc(C(=O)NN(C)c2nc(-c3ccccc3)cc(C)c2S(C)(=O)=O)cc1	–	12.6 µM [rising, partial curve, poor fit]
CC(C)Cc1ccc(/C=C/C(=O)NC2CC2)cc1	12.6 µM [rising, single point]	–
O=C(CSc1ccc2nnc(-c3ccc(F)cc3)n2n1)N1CCCc2ccccc21	1.41 µM [falling, full curve, poor fit]	–
CC(C)Cn1c(N)c(C(=O)COC(=O)c2cccc(F)c2)c(=O)n(C)c1=O	–	35.5 µM [rising, single point]
COc1cccc(OC)c1OCCCOc1cccc2cccnc12	–	0.02 µM [rising, full curve, poor fit]
COc1c(C)c2c(c(O)c1C/C=C(\C)CCC(=O)O)C(=O)OC2	0.224 µM [falling, full curve]	0.141 µM [rising, full curve]
CCc1ccc(C(=O)COC(=O)C(CCSC)NC(=O)c2ccccc2)cc1 (stereo not drawn)	6.31 µM [falling, partial curve, poor fit]	–
CCN(CC)S(=O)(=O)c1nnc(NC(=O)COc2ccccc2)s1	0.794 µM [rising, single point]	–
CC(C)(C)OC(=O)N1CCC(c2c(C(=O)NCCN3CCOCC3)cnn2-c2cccc(F)c2)CC1	0.562 µM [falling, full curve]	0.112 µM [falling, full curve]
COc1ccc(Oc2ncc3nc(-c4ccc(OC)cc4)c(=O)n(C4CC4)c3n2)cc1	7.08 µM [falling, partial curve]	–
O=C(O)C1C2C=CC(C2)C1C(=O)NCc1ccc(Cl)c(Cl)c1 (stereo not drawn)	12.6 µM [rising, single point]	22.4 µM [rising, single point]
COc1ccc(OCCNC(=O)c2ccccc2OCC(=O)N2CCCCC2)cc1	–	31.6 µM [rising, single point]
COc1ccc(C)cc1NC(=O)c1ccc(OC(F)F)cc1	35.5 µM [rising, single point]	35.5 µM [rising, single point]
Oc1c(C(c2ccc(F)cc2)N2CCCC2)sc2nc(-c3ccco3)nn12 (stereo not drawn)	3.98 µM [falling, partial curve, poor fit]	–
O=c1c2ccccc2nc(/C=C/c2ccc([N+](=O)[O-])o2)n1CCCO	6.31 µM [falling, full curve]	2.82 µM [falling, full curve]
Cc1ccc(S(=O)(=O)c2cn(C)c3cc(N4CCOCC4)c(F)cc3c2=O)c(C)c1	10 µM [falling, single point]	–
CCOc1cc(CNc2ccccc2)cc(Br)c1OCc1ccccc1F	–	17.8 µM [rising, single point]
COc1ccc(C(=O)c2ccc(Cl)c([N+](=O)[O-])c2)cc1	2.82 µM [falling, single point]	3.55 µM [falling, single point]
O=S(=O)(c1ccc2ccccc2c1)n1cnc2ccccc21	–	35.5 µM [rising, single point]

By substructure: those above with two or more sulfur atoms
SMILES	AC50 [1]	AC50 [2]
NS(=O)(=O)c1cc(Cl)c(Cl)c(S(N)(=O)=O)c1	0.00447 µM [falling, full curve, poor fit]	0.355 µM [falling, partial curve]
CCN(CC)S(=O)(=O)c1nnc(NC(=O)COc2ccccc2)s1	0.794 µM [rising, single point]	–

Carrying on.

SMILES	AC50 [1]	AC50 [2]
O=C(Oc1ccccc1C(=O)O)c1ccccc1O	0.00631 µM [falling, full curve, poor fit]	–
Cc1cccc(NC(=O)CN(c2ccc(F)cc2)S(C)(=O)=O)c1	35.5 µM [falling, single point]	35.5 µM [falling, single point]
Cc1ccnc(SCC(=O)Nc2sc3c(c2C#N)CCCC3)n1	–	0.708 µM [rising, full curve]
Cc1ccc(CCNC(=O)Cn2ncc3c([nH]c4ccccc43)c2=O)cc1	5.01 µM [falling, partial curve, poor fit]	0.794 µM [falling, full curve]
NC(=O)NC(=O)C[n+]1cccc(/C=N/O)c1	10 µM [falling, partial curve, poor fit]	7.94 µM [falling, partial curve]
O=C(CCS(=O)(=O)c1cccs1)Nc1ccc(C(=O)NC2CCN(Cc3ccccc3)CC2)cc1	35.5 µM [falling, single point]	–
Cc1c(C(=O)N2CCc3ccccc3C2)oc2ccc(S(=O)(=O)N3CCCCCC3)cc12	6.31 µM [rising, full curve]	10 µM [rising, partial curve]
O=C(Nc1cccc(-c2nnc(-c3ccco3)o2)c1)C(c1ccccc1)c1ccccc1	15.8 µM [rising, single point]	–
O=C(Nc1ccc(Oc2ccc(Cl)cc2)cc1)c1ncn[nH]1	–	14.1 µM [rising, single point]
Cc1cccc(NC(=O)c2cccc(NC(=O)Cc3cccs3)c2)c1	–	7.08 µM [rising, full curve, poor fit]
CC(C)(Oc1ccc(Cl)cc1)C(=O)Nc1cccc(-c2cn3cccnc3n2)c1	0.891 µM [falling, full curve]	–
O=[N+]([O-])c1cc(Cl)cc(/C=N/Nc2nc3ccccc3s2)c1O	35.5 µM [falling, single point]	6.31 µM [falling, single point]
Cc1ccc(Nc2nc(-c3ccc(S(=O)(=O)N4CCOCC4)cc3)cs2)cc1Cl	2.24 µM [rising, partial curve]	2.51 µM [rising, partial curve]
Cc1cc(C)cc(NC(=O)c2ccc(NC(=O)C3C4CC5OC(=O)C3C5C4)cc2)c1 (stereo not drawn)	0.00355 µM [rising, full curve, poor fit]	–
CCOc1ccc(/C=C/C(=O)NCCc2ccc(OC)c(OC)c2)cc1	0.0251 µM [rising, full curve, poor fit]	0.282 µM [rising, partial curve, poor fit]
COc1cc(-c2cc3n(C)c(C)c(CCC(=O)Nc4ccc(F)cc4)c(=O)n3n2)cc(OC)c1OC	2.82 µM [falling, full curve]	3.55 µM [falling, full curve, poor fit]
COc1cccc(-c2cnc(NCc3cc(Cl)ccc3O)n2C)c1	–	12.6 µM [rising, single point]
COc1ccccc1/C=C/C(=O)OCC(=O)Nc1ccccc1Sc1ccccc1	–	12.6 µM [rising, single point]
CCN(C(=S)NC(=O)c1ccccc1Br)C1CCCCC1	35.5 µM [rising, single point]	35.5 µM [rising, single point]
CCOC(=O)c1[nH]c(C)c(CCC(=O)NCc2cccc(Cl)c2)c1C	0.355 µM [rising, full curve, poor fit]	–
Cc1cc(C)cc(NC(=O)C2CCCC2)c1	2 µM [falling, partial curve]	1.58 µM [falling, partial curve]
Cc1ccc(C(=O)Nc2ccc(C)c(S(=O)(=O)Nc3ccccc3Cl)c2)s1	–	0.891 µM [rising, partial curve]
CC(C)CNS(=O)(=O)c1ccc(CCC(=O)NCC2CCCO2)cc1 (stereo not drawn)	0.794 µM [falling, full curve]	0.794 µM [falling, full curve, poor fit]
Cc1cc(OC(=O)CNC(=O)OC(C)(C)C)c2c(C)cc(=O)oc2c1	22.4 µM [rising, single point]	–
O=C(O)c1ccccc1C(=O)c1cccs1	–	0.631 µM [falling, partial curve, poor fit]
S=C(Nc1ccc(Cl)cc1)NC1CCN(Cc2ccccc2)CC1	0.355 µM [rising, partial curve]	8.91 µM [rising, partial curve]
CCC(=O)c1ccc(OCC(O)Cn2cnc3ccccc32)cc1 (stereo not drawn)	12.6 µM [rising, partial curve]	12.6 µM [rising, partial curve]
